This test is described as follows: qHTS Assay for Lipid Storage Modulators in Drosophila S3 Cells.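 As to cell number change: cells counted by Cell Tracker Red CMTPX staining in the red channel.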 To be noted: BODIPY lipid droplet fluorescence, 18-24 h; for cell number change: measured here: cell count max response, cells fed with added oleic acid. An outline of the steps:
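Drosophila S3 cells got compounds at several concentrations plus oleic acid (400 uM solution). Laser-scanning cytometry with 488 nm excitation read lipid droplets at 500-530 nm and cells at 575-640 nm. Percent activity was relative to 20 uM Triacsin C.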

Where [1] appears, read: measured here: lipid fluorescence (Fed channel) AC50, cells fed with added oleic acid.
Setting [2] is: measured here: cell number channel AC50, cells fed with added oleic acid.

This is one part of the list. Shown are side measurements of this screen, not its main read-out; they come without a call. Compounds called inactive in the main read-out are mostly missing here. Words in brackets tell the shape of the fitted curve; partial curves, single points and poor fits give uncertain potencies.

Turning to `C=C(C)CSc1nnc2n(C)c(=O)c3c4c(sc3n12)CCC4`, the cell number change was 10.7%. Under setting [1], the AC50 is 1.3 µM [rising, full curve].
On to `COc1ccc(-c2noc(-c3ccccc3C(=O)NCc3ccco3)n2)cc1OC`, for which the cell number change turned out to be 156%. Further, under setting [2], the AC50 was 0.731 µM [rising, single point]. Besides, under setting [1], the AC50 is 0.58 µM [rising, single point].
As to `CN(C)c1ccc(-c2nnn(CC(=O)N3c4ccccc4CCc4ccccc43)n2)cc1`, the cell number change was -64.5%. Further, under setting [2], the concentration at half-maximal activity (AC50) was 1.46 µM [falling, partial curve]. Further, the AC50 under setting [1] was 3.66 µM [falling, full curve].
On to `CCOc1cccc(C(=O)NC(=S)Nc2cccc(NC(=O)c3ccccc3Cl)c2)c1`, for which the cell number change is 10.1%. In addition, under setting [2], the AC50 is 6.51 µM [rising, single point]. The AC50 under setting [1] was 4.61 µM [falling, partial curve, poor fit].
Take `COC(=O)c1c(NC(=S)Nc2ccc(CC(=O)O)cc2)sc(C)c1C`: the cell number change was 2.07%. For the same compound, the AC50 under setting [1] is 0.731 µM [falling, full curve, poor fit].
`Cc1ccc(S(=O)(=O)NCc2csc(-c3cccs3)n2)cc1`: the cell number change came out at 37.6%. In addition, the AC50 under setting [2] was 25.9 µM [rising, single point].
As for `N#Cc1cc(Cl)c(NCC2CCCO2)cc1C#N` (stereo not given), the cell number change is -66.4%. For the same compound, the AC50 under setting [2] is 32.6 µM [falling, single point].
With `Cc1ccc(S(=O)(=O)N2CCN(C(=O)c3ccc(COc4ccccc4)o3)CC2)cc1`, the cell number change was -6.69%. The AC50 under setting [1] is 0.82 µM [rising, full curve].
Take `COC(=O)C1=C(C)N(Cc2ccccc2)C(=NCc2cccc(C(F)(F)F)c2)N[C@H]1c1cccc(C(F)(F)F)c1`: the cell number change was -42.4%. Besides, the AC50 under setting [2] was 13 µM [falling, partial curve]. Moreover, the AC50 under setting [1] was 20.6 µM [falling, partial curve].
Take `COc1ccc(-n2c(SCC(=O)Nc3ccc4c(c3)OCO4)nc3c(c2=O)SCC3)cc1`: the cell number change amounted to 21.6%. In addition, the AC50 under setting [1] was 0.146 µM [rising, full curve, poor fit].
As for `COc1ccc(-n2c(SCC(N)=O)nnc2-c2ccco2)cc1`, the cell number change was -6.82%. In addition, the AC50 under setting [1] was 13 µM [falling, partial curve].
Consider `C/C(=N\Nc1nccnc1Cl)c1c(F)c(F)c(F)c(F)c1F`, for which the cell number change was determined as 4.25%. Moreover, under setting [1], the AC50 was 0.731 µM [falling, full curve, poor fit].
Consider `CC(=O)c1cc(-c2ccccc2)n(CC(=O)N2CCCCC2)c1C`, for which the cell number change is -50.9%. Under setting [2], the AC50 is 2.06 µM [falling, full curve]. For the same compound, the AC50 under setting [1] was 1.46 µM [falling, full curve].
For the compound `CC1CCN(C(=O)CSc2nnc(-c3ccco3)o2)CC1`, the cell number change was determined as 0.552%. The AC50 under setting [1] is 0.00461 µM [rising, full curve, poor fit].
`O=C(Cn1ncc2c(=O)oc3ccccc3c21)NCCC1=CCCCC1`: the cell number change is -0.838%. For the same compound, the AC50 under setting [1] is 0.0058 µM [falling, full curve, poor fit].
On to `Cc1c(C(=O)NC2CCCCC2C)oc2ccccc12` (stereo not given), for which the cell number change is -1.08%. Under setting [1], the AC50 was 29.1 µM [falling, single point].
With `O=C(Cc1ccc(Cl)cc1Cl)Nc1ccncc1`, the cell number change is -33%. The AC50 under setting [1] is 2.82 µM [falling, partial curve].
Regarding `CC(=O)c1cc2c(cc1N/C(=N/S(=O)(=O)c1ccc(C)cc1)c1ccc(Cl)cc1)OCO2`, the AC50 was 1.84 µM [rising, partial curve] under setting [2] and 1.84 µM [rising, partial curve] under setting [1].
Take `C(=C\n1nnc2ccccc21)/c1ccccn1`: the cell number change is -31.6%. Further, the AC50 under setting [2] is 0.58 µM [falling, full curve]. The AC50 under setting [1] was 6.51 µM [falling, single point].
For `Cc1cnc(-c2nnc(N(C)C(=O)c3cccnc3)s2)cn1`, the cell number change is -3.26%.
As to `COc1ccc(C(=O)Nc2ccccc2N2CCCC2)cc1S(=O)(=O)N1CCOCC1`, under setting [2], the AC50 was 3.66 µM [rising, partial curve, poor fit].
As for `C[C@H](NC(=O)c1ccccc1)C(=O)OCC(=O)c1c[nH]c2ccccc12`, the cell number change was determined as 35.4%. The AC50 under setting [2] was 7.31 µM [rising, single point].
Take `CC(C)(C)NC(=O)CN(c1cccc([N+](=O)[O-])c1)S(=O)(=O)c1ccccc1`: the cell number change is 3.82%. The AC50 under setting [1] is 0.92 µM [falling, single point].
On to `Nc1cc(=O)[nH]n1C1CCCC1`, for which the cell number change was -97.2%. For the same compound, under setting [2], the AC50 was 23.1 µM [falling, single point].
As for `CCOc1ccc(OCC)c(NC(=O)CSc2nc3c(c(=O)n(C)c(=O)n3C)n2CC)c1`, the cell number change came out at 5.67%. For the same compound, the AC50 under setting [2] was 0.206 µM [rising, full curve, poor fit]. Under setting [1], the AC50 is 0.411 µM [rising, full curve].
With `CCOC(=O)c1sc(N)c(C#N)c1CSc1nnc(C2CCCCC2)n1N`, the cell number change is -28.9%. In addition, the half-maximal activity concentration (AC50) under setting [1] was 0.103 µM [falling, full curve, poor fit].
For `CCCS(=O)(=O)c1ccc(COC(=O)c2ccc(NC(C)=O)cc2)cc1`, the cell number change was found to be 19.5%. Under setting [1], the AC50 is 2.59 µM [rising, partial curve].
As for `O=C(Nc1ccccc1N1CCOCC1)c1cc2c(s1)CCCCC2`, the cell number change worked out at 28.1%.
In the case of `O=C(CSCc1cccc(CSCC(=O)Nc2ccccc2)n1)Nc1ccccc1`, the cell number change stood at 2.56%. Also, the AC50 under setting [1] was 13 µM [rising, single point].
With `CCc1ccc(C(=O)N/N=C/c2ccncc2)s1`, the cell number change stood at 32.3%. In addition, the AC50 under setting [1] was 6.51 µM [rising, single point].
For `CCN1CCN(c2ccc(NC(=O)c3cccc(N4CCCC4=O)c3)cc2)CC1`, the cell number change was -2.63%.
As to `COc1cc(NC(=O)C2CC(=O)N(Cc3ccco3)C2)c(OC)cc1Cl` (stereo not given), the cell number change is -50.7%. For the same compound, the AC50 under setting [2] is 25.9 µM [falling, partial curve, poor fit]. Under setting [1], the AC50 was 25.9 µM [falling, partial curve, poor fit].
Take `O=C1OCc2cc(NC(=O)C34CC5CC(CC(C5)C3)C4)ccc21`: the cell number change was -69.3%. Further, the AC50 under setting [2] is 16.4 µM [falling, partial curve]. Under setting [1], the AC50 was 20.6 µM [falling, partial curve].
As for `O=C(N/N=C/c1cc(O)ccc1Br)c1cccnc1`, the cell number change was -2.46%. Under setting [1], the AC50 was 6.51 µM [rising, partial curve, poor fit].
With `O=C(CCCC(=O)N(CC(=O)NC1CCCCC1)c1ccccc1F)Nc1ccccn1`, the cell number change is -4.05%. Under setting [1], the AC50 is 4.11 µM [falling, full curve].
Regarding `O=C1CC(c2cc(-c3ccccc3)no2)C1`, the cell number change was 0.599%. Under setting [1], the concentration at half-maximal activity (AC50) was 29.1 µM [rising, single point].
With `O=C(NCCc1ccccc1)c1ccc2nc(-c3ccco3)c(-c3ccco3)nc2c1`, the cell number change was -121%. Further, under setting [2], the AC50 is 29.1 µM [falling, single point]. Also, the AC50 under setting [1] is 0.291 µM [rising, partial curve, poor fit].
For the compound `COc1ccc(C)cc1NC(=O)N1CCC(CO)(CC2CCCCO2)CC1` (stereo not given), the cell number change was found to be 29.2%. Further, the AC50 under setting [2] is 0.00651 µM [rising, full curve, poor fit].
With `O=C(Nc1ccc(Br)c(Cl)c1)C1CC1`, the cell number change was determined as 24%. For the same compound, the AC50 under setting [1] was 2.31 µM [falling, partial curve].
Consider `Cc1cccc(N(CC(=O)NC(C)(C)C)C(=O)CCC(=O)Nc2nccs2)c1`, for which the cell number change stood at 0.787%.
With `CC(NC(=O)OCc1ccccc1)C(=O)OCN1C(=O)c2ccccc2C1=O` (stereo not given), the cell number change came out at 0.195%. Also, under setting [1], the AC50 is 0.00517 µM [falling, full curve, poor fit].
Consider `Cn1ccnc1SCC(=O)Nc1ccc2c(c1)OCCO2`, for which the cell number change amounted to 10.3%. For the same compound, the AC50 under setting [1] is 5.8 µM [falling, full curve].
With `N=C1C(c2nc3ccccc3s2)=C(O)CN1NC(=O)c1ccccc1[N+](=O)[O-]`, the cell number change is -35.3%. Besides, the AC50 under setting [2] was 11.2 µM [falling, partial curve].
With `CCCOC(=O)C1C2C=C[C@]3(CN(CCc4ccccc4)C(=O)[C@H]13)O2` (stereo not given in full), the cell number change amounted to 8.9%.
Turning to `Cc1nn(Cc2ccc([N+](=O)[O-])cc2)c(=O)n1-c1c(F)cccc1F`, the cell number change is 71%. In addition, the AC50 under setting [2] was 0.411 µM [rising, partial curve].
`CN(C)CCC(=O)c1ccc(Cl)cc1`: the cell number change was -8.95%. The AC50 under setting [1] is 5.8 µM [falling, partial curve, poor fit].
For `COc1ccc(NC(=O)CN(C)S(=O)(=O)c2cnc[nH]2)cc1`, the cell number change was -2.47%. Moreover, the AC50 under setting [1] was 29.1 µM [rising, single point].
With `COc1cccc(CN2CCN(S(=O)(=O)c3ccc(NC(C)=O)cc3)CC2)c1OC`, the cell number change was -18%. Besides, the AC50 under setting [1] is 0.58 µM [falling, full curve].
With `O=C(Nc1ccccc1N1CCOCC1)c1cccc(Oc2ccccc2)c1`, the cell number change was -14.5%. Besides, under setting [1], the AC50 was 0.447 µM [falling, single point].
`Cc1csc(/N=C/N(C)C)c1C#N`: the cell number change is -47.4%. Moreover, under setting [2], the AC50 was 18.4 µM [falling, single point]. Under setting [1], the AC50 was 29.1 µM [falling, single point].
For `O=C(CSc1nnc(-c2ccccc2)n1Cc1ccccc1)NNC(=O)c1ccccc1O`, the cell number change was 22.6%. Besides, under setting [2], the AC50 is 0.731 µM [rising, full curve, poor fit]. The AC50 under setting [1] was 23.1 µM [rising, partial curve].
As to `Cc1ccc(NS(=O)(=O)c2cc(NC(=O)c3ccc4c(c3)NC(=O)CS4)ccc2Cl)c(C)c1`, the cell number change turned out to be 92.9%. In addition, under setting [2], the AC50 was 29.1 µM [rising, single point].
Take `O=C(CN1CCCC1)Nc1cccc(Cl)c1`: the cell number change was determined as 25.7%. For the same compound, under setting [1], the AC50 is 8.2 µM [rising, partial curve, poor fit].
Regarding `COc1ccccc1NC(=S)N1CCCc2ccccc21`, the cell number change turned out to be 29.4%. The AC50 under setting [1] was 29.1 µM [rising, single point].
Consider `COc1cc2c(cc1NC(=O)CSc1nccn1C)oc1ccccc12`, for which the cell number change is -57.1%. The AC50 under setting [2] is 23.1 µM [falling, single point]. For the same compound, under setting [1], the AC50 was 0.092 µM [rising, full curve, poor fit].
As for `C=CCN(c1ccc(Cl)cc1)S(=O)(=O)c1cccc(C(=O)OCC(=O)N(C)C)c1`, the cell number change was -24.1%. Further, the AC50 under setting [2] is 0.116 µM [falling, full curve, poor fit]. Besides, the AC50 under setting [1] was 0.13 µM [falling, single point].

One may read the AC50 as the concentration at which the activity in the assay is half-maximal.

(Values after PubChem BioAssay AID2685 (National Center for Advancing Translational Sciences (NCATS), 2010).)
